{"sequences": {"note": "Amino acid sequences for entries named in this document (tags omitted). Residues count along the entry.", "UniProt Q9P126, residues 55-229": "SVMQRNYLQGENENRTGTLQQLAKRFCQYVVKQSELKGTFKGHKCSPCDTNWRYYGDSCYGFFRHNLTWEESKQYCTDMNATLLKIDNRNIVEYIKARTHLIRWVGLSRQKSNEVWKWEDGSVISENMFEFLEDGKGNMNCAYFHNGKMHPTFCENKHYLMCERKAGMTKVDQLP"}, "source": "paper PMC11674933", "key": {"[1]": {"target": "T1, ^2E3PDPN overexpressed on HCT 116 cells (human) (UniProt Q86YL7)", "T1 sequence": "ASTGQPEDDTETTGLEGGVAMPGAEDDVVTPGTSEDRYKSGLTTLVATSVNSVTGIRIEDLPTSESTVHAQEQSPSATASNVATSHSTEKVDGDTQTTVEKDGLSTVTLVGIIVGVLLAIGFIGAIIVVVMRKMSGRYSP", "assay": "flow cytometry on cells; mutPlGF-CLEC2 in HEK-293T conditioned medium on HCT 116 cells expressing CA9^NS or ^2E3PDPN, incubation at 4 °C, then staining"}, "[2]": {"target": "T1, ^2E3PDPN overexpressed on HCT 116 cells (human)"}}, "note": "Read-outs that look alike come from different tables or passages of the source. Results are given in words; binding and its absence hold for the method and conditions named. Some results given as binding are weak or reduced against the parent protein; the word gives no strength.", "data": [{"substance": "CLEC2 construct from the recombinant library (mutPlGF-CLEC2) (from UniProt Q9P126 55-229) (domain or fragment)", "values": [{"measurement": "binding", "setting": "[1]", "value": "binds"}, {"measurement": "binding", "setting": "[2]", "value": "no binding"}]}]}
